The values that follow come from PMC5725455.

Chains of the proteins cited; added tags and fusions are not shown.
UniProt P25963: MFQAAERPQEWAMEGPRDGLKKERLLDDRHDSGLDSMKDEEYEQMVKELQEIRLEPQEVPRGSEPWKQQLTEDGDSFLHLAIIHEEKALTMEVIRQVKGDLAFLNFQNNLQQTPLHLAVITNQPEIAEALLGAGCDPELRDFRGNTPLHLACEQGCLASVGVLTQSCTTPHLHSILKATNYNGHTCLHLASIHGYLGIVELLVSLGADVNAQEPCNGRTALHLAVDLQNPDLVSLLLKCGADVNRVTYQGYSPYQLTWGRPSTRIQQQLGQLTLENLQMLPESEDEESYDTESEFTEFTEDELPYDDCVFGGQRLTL

No constants are given. Whether binding was seen depends on the method and setting. Some binding calls cover weakened binding; strength is not graded here. Tags and fused reporters may be left off the sequences shown.

Common to all, as to assay: pull-down; FLAG-tagged proteins from transfected HEK 293 cells held on anti-FLAG M2 agarose after extensive washing; mixed with GST-DUSP5 WT (2 μg) in 1 ml PTP reaction buffer (100 mM Tris-HCl pH 7.5, 40 mM NaCl, 1 mM DTT), 3 h at 4 °C; beads washed 5 times; immunoblot; both purified
Test [1] has as its target T1, FLAG-tagged IKKα (UniProt O15111).
T1 sequence: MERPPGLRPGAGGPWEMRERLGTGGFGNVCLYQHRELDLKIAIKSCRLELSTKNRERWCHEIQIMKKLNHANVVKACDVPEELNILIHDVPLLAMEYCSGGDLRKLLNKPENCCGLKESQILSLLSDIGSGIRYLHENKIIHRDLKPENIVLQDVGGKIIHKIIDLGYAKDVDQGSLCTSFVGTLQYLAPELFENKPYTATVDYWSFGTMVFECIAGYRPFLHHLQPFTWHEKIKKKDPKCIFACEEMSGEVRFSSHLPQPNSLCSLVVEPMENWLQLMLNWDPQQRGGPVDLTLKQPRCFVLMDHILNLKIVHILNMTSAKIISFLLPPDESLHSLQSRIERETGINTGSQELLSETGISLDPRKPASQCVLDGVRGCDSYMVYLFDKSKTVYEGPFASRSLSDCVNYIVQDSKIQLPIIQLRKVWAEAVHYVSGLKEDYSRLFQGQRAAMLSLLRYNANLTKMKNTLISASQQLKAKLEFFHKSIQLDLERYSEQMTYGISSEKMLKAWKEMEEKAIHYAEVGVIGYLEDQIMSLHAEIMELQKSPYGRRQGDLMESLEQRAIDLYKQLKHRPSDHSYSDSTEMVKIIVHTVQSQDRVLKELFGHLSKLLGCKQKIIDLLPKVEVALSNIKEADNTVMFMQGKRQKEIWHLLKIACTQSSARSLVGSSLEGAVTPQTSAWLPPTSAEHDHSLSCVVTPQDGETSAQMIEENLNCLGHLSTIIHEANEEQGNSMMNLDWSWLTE

Test [2] concerns the target T2, FLAG-tagged TAK1 (UniProt O43318).
T2 sequence: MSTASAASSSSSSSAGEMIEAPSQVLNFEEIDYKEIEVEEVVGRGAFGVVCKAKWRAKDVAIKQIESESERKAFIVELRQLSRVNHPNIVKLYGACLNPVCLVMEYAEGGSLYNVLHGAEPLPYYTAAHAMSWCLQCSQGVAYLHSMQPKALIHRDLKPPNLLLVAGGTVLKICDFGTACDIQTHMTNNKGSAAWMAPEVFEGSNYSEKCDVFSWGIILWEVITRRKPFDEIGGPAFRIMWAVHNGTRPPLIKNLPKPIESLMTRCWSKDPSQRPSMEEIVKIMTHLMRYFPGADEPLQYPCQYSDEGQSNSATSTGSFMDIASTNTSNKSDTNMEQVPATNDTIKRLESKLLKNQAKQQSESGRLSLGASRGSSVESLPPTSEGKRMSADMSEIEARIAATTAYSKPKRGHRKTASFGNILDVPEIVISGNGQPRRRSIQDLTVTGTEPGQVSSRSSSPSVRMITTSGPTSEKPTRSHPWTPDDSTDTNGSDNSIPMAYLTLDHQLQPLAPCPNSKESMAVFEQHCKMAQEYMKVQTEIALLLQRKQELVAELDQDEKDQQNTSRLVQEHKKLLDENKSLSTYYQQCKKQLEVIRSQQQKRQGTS

The target in test [3] is FLAG-tagged IκBα (UniProt P25963).
Test [4] deals with T3, FLAG-tagged IKKβ (UniProt O14920).
T3 sequence: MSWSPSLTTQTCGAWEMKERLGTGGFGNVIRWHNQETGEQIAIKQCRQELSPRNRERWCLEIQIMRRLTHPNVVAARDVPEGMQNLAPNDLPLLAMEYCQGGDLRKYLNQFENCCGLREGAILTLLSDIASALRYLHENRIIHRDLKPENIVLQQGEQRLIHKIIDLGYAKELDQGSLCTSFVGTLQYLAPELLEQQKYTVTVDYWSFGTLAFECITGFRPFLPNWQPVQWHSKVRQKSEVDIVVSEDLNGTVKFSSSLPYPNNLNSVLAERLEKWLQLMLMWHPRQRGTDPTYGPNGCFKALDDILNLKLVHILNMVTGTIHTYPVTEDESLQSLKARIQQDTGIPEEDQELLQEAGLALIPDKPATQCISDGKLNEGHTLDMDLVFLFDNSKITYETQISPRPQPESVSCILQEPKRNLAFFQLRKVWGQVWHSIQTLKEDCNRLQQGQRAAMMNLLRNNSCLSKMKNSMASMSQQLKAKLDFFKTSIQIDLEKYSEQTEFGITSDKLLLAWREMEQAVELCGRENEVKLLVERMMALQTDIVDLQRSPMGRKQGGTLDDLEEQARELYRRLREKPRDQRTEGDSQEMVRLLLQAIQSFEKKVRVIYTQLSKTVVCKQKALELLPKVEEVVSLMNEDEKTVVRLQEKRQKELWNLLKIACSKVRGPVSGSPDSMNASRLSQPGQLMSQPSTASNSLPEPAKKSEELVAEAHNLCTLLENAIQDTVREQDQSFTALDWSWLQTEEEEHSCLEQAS

B1: GST-DUSP5 WT (recombinant) (enzyme, UniProt Q16690 1-384)
chain: MKVTSLDGRQLRKMLRKEAAARCVVLDCRPYLAFAASNVRGSLNVNLNSVVLRRARGGAVSARYVLPDEAARARLLQEGGGGVAAVVVLDQGSRHWQKLREESAARVVLTSLLACLPAGPRVYFLKGGYETFYSEYPECCVDVKPISQEKIESERALISQCGKPVVNVSYRPAYDQGGPVEILPFLYLGSAYHASKCEFLANLHITALLNVSRRTSEACATHLHYKWIPVEDSHTADISSHFQEAIDFIDCVREKGGKVLVHCEAGISRSPTICMAYLMKTKQFRLKEAFDYIKQRRSMVSPNFGFMGQLLQYESEILPSTPNPQPPSCQGEAAGSSLIGHLQTLSPDMQGAYCTFPASVLAPVPTHSTVSELSRSPVATATSC
B1: the binding entry was “binds” in test [1], “binds” in test [2], “no binding (tested: 2 μg GST-DUSP5 in 1 ml)” in test [3] and “binds” in test [4].
